Values quoted from earlier work as cited in US20140329782A1, “COMBINED THERAPEUTIC AGENT” (priority 2011, published 2014).
At least one structure is not confirmed: it was looked up by name or label, or the drawing left a doubt.

Test system: Crohn's disease
Conditions: cited from earlier work

CCCC1O[C@@H]2C[C@H]3[C@@H]4CCC5=CC(=O)C=C[C@]5(C)[C@H]4[C@@H](O)C[C@]3(C)[C@]2(C(=O)CO)O1 (some centres unmarked) [budesonide]
mediation of a remission of three months (6 mg of budesonide, Crohn's disease): ineffective in comparison with the placebo
remission (maintaining remission): 24%
